Laboratory results reported in PubChem BioAssay AID504834 (National Center for Advancing Translational Sciences (NCATS), 2011).
About 22,000 (6.9%) of roughly 320,000 compounds were called active. Inconclusive results, whose numbers are uncertain, are shown with a selection of clear calls. Calls follow the shape of the dose curve; as a rule, active = well fitted inhibition curve with a large enough effect; inconclusive = small, poorly fitted or top-dose-only effect, or another doubt; inactive = no such curve, though single readings can be large or run the other way. Potencies of inconclusive entries are doubtful fits and often do not repeat. Where a SMILES comes first, the peptide text is derived from it. [ ]: non-standard residue; d: D form. Orn = NCCC[CH](N)C(=O)O

assay: Primary qHTS for delayed death inhibitors of the malarial parasite plastid, 96 hour incubation; details: P. falciparum luciferase reporter growth; series mostly up to 28.7 µM
Method in brief: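 Infected RBCs, 2% Hct / 0.05% parasitemia final; luciferase-reporter P. falciparum; cpd 96 h, 37 C, 5% CO2; luciferase detection reagent; luminescence.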
% is scaled to controls: 0 for no effect and ±100 for the full control effect; potency is read from the fitted curve at half-maximal effect.

Which Potency does the source give for `COc1ccc(-c2noc(CCC(=O)NC3CCCCCC3)n2)cc1` here?
The Potency was inconclusive: 1.85 µM [inhibitor, partial curve].

Which Potency does the source give for `O=C(c1ccco1)N1CCc2[nH]nc(-c3ccc(Cl)cc3)c2C1` here?
The Potency was inconclusive: 18.5 µM [inhibitor, single point].

For `COC(=O)c1c(C)oc(C)c1S(=O)(=O)NCC1CC1`, which Potency is on record?
The Potency was “inactive”.

With `C/C(N)=C(/C#N)C(=O)COC(=O)c1cccc(O)c1` as the compound, how does the Potency read?
Its Potency is “inactive”.

For `CSc1ccccc1C(=O)N1CCCCC1`, which Potency is on record?
Its Potency is inconclusive: 6.57 µM [inhibitor, partial curve].

With `Cc1cccc(CN(C(=S)Nc2c(C)cccc2C)c2cccnc2)c1` as the compound, how does the Potency read?
Its Potency is “inactive”.

For `Cc1ccc(-n2ncc(C(=O)N3CCN(C(=O)c4ccco4)CC3)c2-n2cccc2)cc1`, which Potency is on record?
Its Potency is inconclusive: 11.7 µM [inhibitor, single point].

For `CC(C)C[C@H](NC(=O)N1CCn2c1nc1ccccc12)C(=O)NCC1CCCO1` (some centres undefined), which Potency is on record?
Its Potency is “inactive”.

Which Potency does the source give for `CCC(C)[C@@H](C(=O)Nc1ccc2c(c1)OCO2)N1Cc2ccccc2C1=O` (some centres undefined) here?
The Potency was inconclusive: 10.4 µM [inhibitor, single point].

With `CCOc1ccc(-c2nnc(SCC(=O)N3CCOCC3)o2)cc1` as the compound, how does the Potency read?
The Potency was inconclusive: 18.5 µM [inhibitor, single point].

With `O=C(c1ccnc(Cl)c1)N1CCCC(N2CCN(c3ccccc3F)CC2)C1` (centres undefined) as the compound, how does the Potency read?
The Potency was “inactive”.

Which Potency does the source give for `Cn1nc(C(F)(F)F)cc1C(=O)Nc1ccc(Cl)cc1` here?
Its Potency is inconclusive: 18.5 µM [inhibitor, partial curve, poor fit].

For `Cc1ccccc1NC(=O)c1ccc2c(c1)CCN2S(C)(=O)=O`, which Potency is on record?
Its Potency is inconclusive: 18.5 µM [inhibitor, single point].

With `CC(C)c1ccccc1NC(=O)CSc1n[nH]c(=O)n1C1CC1` as the compound, how does the Potency read?
The Potency was “inactive”.

Which Potency does the source give for `O=C(Nc1nnc(CCN2CCCCC2)s1)C1CCCCC1` here?
Its Potency is active: 13.1 µM.

For `COC(=O)C1=C(c2ccc(F)cc2OCc2ccccc2)C[C@@H]2CC[C@H]1N2C(=O)NCCN1CCOCC1`, which Potency is on record?
The Potency was inconclusive: 2.62 µM [inhibitor, full curve, poor fit].

For `Cc1ccccc1-n1c(-c2csc3ccccc23)n[nH]c1=S`, which Potency is on record?
Its Potency is “inactive”.

Which Potency does the source give for `Cc1cc(C)c2c(NC(=S)Nc3ccccc3)n[nH]c2n1` here?
Its Potency is “inactive”.

With `COc1cc([N+](=O)[O-])ccc1NC(=O)N1CCCCCC1` as the compound, how does the Potency read?
The Potency was “inactive”.

With `O=c1c2ccccc2nc(SCc2ccccc2)n1CC1CCCO1` (centres undefined) as the compound, how does the Potency read?
Its Potency is inconclusive: 9.28 µM [inhibitor, partial curve, poor fit].

Which Potency does the source give for `COc1ccc(-c2noc(COc3ccc(C)c(C)c3)n2)cc1OC` here?
Its Potency is “inactive”.

Which Potency does the source give for `Cc1ccc2cc(CCNC(=O)c3ccco3)c(=O)[nH]c2c1C` here?
The Potency was “inactive”.

For `CSC1=NC(C(Cl)(Cl)Cl)N=C(c2ccc(C)cc2)N1` (centres undefined), which Potency is on record?
The Potency was inconclusive: 11.7 µM [inhibitor, single point].

With `CC(C)(C)CC(C)(C)NCC(=O)Nc1c2c(nc3ccccc13)CCC2` as the compound, how does the Potency read?
Its Potency is inconclusive: 0.294 µM [inhibitor, full curve, poor fit].

Which Potency does the source give for `COc1ccc(CCNC(=O)c2cc(-c3ccc(C)c(C)c3O)n[nH]2)cc1OC` here?
Its Potency is active: 14.7 µM.

With `O=C(Nc1nc2ccccc2c(=O)[nH]1)c1ccccc1SCc1ccccc1` as the compound, how does the Potency read?
Its Potency is inconclusive: 0.104 µM [inhibitor, full curve, poor fit].

For `CCOC(=O)NC(N(O)c1cccc(Cl)c1)C(Cl)(Cl)Cl` (centres undefined), which Potency is on record?
The Potency was “inactive”.

With `CC(C)CC1NC(=O)C(CCCN)NC(=O)C(C(C)C)NC(=O)C2CCCN2C(=O)C(Cc2ccccc2)NC(=O)C(CC(C)C)NC(=O)C(CCCN)NC(=O)C(C(C)C)NC(=O)C2CCCN2C(=O)C(Cc2ccccc2)NC1=O` (centres undefined) (cyclo(FPV[Orn]LFPV[Orn]L); configuration not given here) as the compound, how does the Potency read?
Its Potency is active: 2.39 µM.

With `CC(=O)Nc1ccc(OCC(O)CN2CCN(c3cc(Cl)ccc3C)CC2)cc1` (centres undefined) as the compound, how does the Potency read?
The Potency was inconclusive: 13.1 µM [inhibitor, partial curve, poor fit].

With `O=[N+]([O-])c1cccc(C2=NC(c3ccccc3)CO2)c1` (centres undefined) as the compound, how does the Potency read?
Its Potency is “inactive”.

For `CSc1ccccc1NC(=O)c1ccc(Br)o1`, which Potency is on record?
Its Potency is “inactive”.

With `COc1ccc(S(=O)(=O)N(C)c2ccc(C(=O)Nc3cccnc3)cc2)cc1OC` as the compound, how does the Potency read?
Its Potency is inconclusive: 11.7 µM [inhibitor, partial curve].

For `CC(C)(C)c1csc(NC(=O)c2ccc3nccnc3c2)n1`, which Potency is on record?
The Potency was inconclusive: 16.5 µM [inhibitor, single point].

Which Potency does the source give for `Cc1ccc(NC(=O)CCN2C(=O)c3ccccc3Sc3ncccc32)cc1` here?
The Potency was inconclusive: 10.4 µM [inhibitor, partial curve, poor fit].

Which Potency does the source give for `Cc1cc2cc(CCNC(=O)CCCc3ccccc3)c(=O)[nH]c2cc1C` here?
The Potency was “inactive”.

Which Potency does the source give for `Cc1ccc(CSc2ncn(-c3ccccc3)n2)cc1` here?
The Potency was inconclusive: 11.7 µM [inhibitor, partial curve, poor fit].

With `O=C(NC1CCCC1)C1CCCN(C(=O)Nc2ccccc2)C1` (centres undefined) as the compound, how does the Potency read?
Its Potency is “inactive”.

For `Cc1nn(C)c(NC(=O)c2ccccc2Cl)c1Br`, which Potency is on record?
The Potency was “inactive”.

With `CCOC(=O)c1ccccc1NC(=S)N1CCCCC1` as the compound, how does the Potency read?
The Potency was active: 9.28 µM.

With `CS(=O)(=O)Nc1ccc(C(=O)NCCSc2ccc(Cl)cc2)cc1` as the compound, how does the Potency read?
The Potency was “inactive”.

For `CC(C)(C)C(=O)NC(=S)Nc1ccc(Cl)c(C(=O)O)c1`, which activity change, negative = inhibition is on record?
The activity change, negative = inhibition was inactive: -14.7% [at 5.75 µM].

For `COc1cc(NC(=O)C2CCC(CNc3c(N4CCC(C)CC4)c(=O)c3=O)CC2)cc(OC)c1` (centres undefined), which Potency is on record?
Its Potency is “inactive”.

Which Potency does the source give for `O=C(NCc1cn(-c2ccccc2)nc1-c1ccccc1)c1cccc([N+](=O)[O-])c1` here?
Its Potency is “inactive”.

Which Potency does the source give for `Cc1ccc(Cl)cc1NC(=S)NCCCSC1CCCCC1` here?
Its Potency is inconclusive: 18.5 µM [inhibitor, single point].

For `CCOC(=O)[C@H]1[C@H]2COc3ccc(OC)cc3[C@@H]2N2C(=O)[C@H](C)NC(=O)[C@@]12C`, which Potency is on record?
Its Potency is inconclusive: 10.4 µM [inhibitor, single point].

With `Cc1cc(C)cc(OC(=O)CCN2C(=O)c3ccccc3C2=O)c1` as the compound, how does the Potency read?
The Potency was inconclusive: 11.7 µM [inhibitor, single point].

For `COc1ccc(C(=O)NCCCNC(=O)c2ccco2)cc1OC`, which Potency is on record?
The Potency was “inactive”.

For `Cc1cc(C)n(-c2nc3ccccc3c(=O)n2OCC(=O)Nc2c(C)cccc2C)n1`, which Potency is on record?
Its Potency is active: 13.1 µM.

For `CN(C)CCN(CC1CCCN(Cc2ccccc2F)C1)C(=O)Cc1c(F)cccc1F` (centres undefined), which Potency is on record?
The Potency was inconclusive: 13.1 µM [inhibitor, single point].

With `NNc1nc2ccc(F)cc2s1` as the compound, how does the Potency read?
Its Potency is “inactive”.

For `CN(c1cccc(NC(=O)CN(c2cccc(Cl)c2)S(=O)(=O)c2ccc(Cl)cc2)c1)S(C)(=O)=O`, which Potency is on record?
Its Potency is “inactive”.

With `CCC(C)n1c(OC)nc2c1c(=O)n(C)c(=O)n2C` (centres undefined) as the compound, how does the Potency read?
The Potency was inconclusive: 11.7 µM [inhibitor, single point].

Which Potency does the source give for `COc1ccccc1N1CCN(C(=O)c2cc3cc(F)ccc3[nH]2)CC1` here?
Its Potency is inconclusive: 10.4 µM [inhibitor, single point].

With `Cc1ccc(C(=O)NCc2ccc3c(c2)OCO3)o1` as the compound, how does the Potency read?
The Potency was “inactive”.

With `C=CCn1cnc2c(c1=O)c1nc3ccccc3nc1n2/N=C/c1cc(OC)c(OC)c(OC)c1` as the compound, how does the Potency read?
The Potency was active: 5.86 µM.

With `CC(=O)Nc1cccc(OCC(=O)Nc2sccc2C(N)=O)c1` as the compound, how does the Potency read?
The Potency was “inactive”.

For `COc1ccccc1NC(=O)CSCC(=O)N1c2ccccc2CCc2ccccc21`, which Potency is on record?
The Potency was active: 5.86 µM.

For `C=CCN1C(c2ccc(Br)cc2)=CS/C1=C(/C#N)c1nnc(N2CCOCC2)n1-c1ccccc1`, which Potency is on record?
Its Potency is inconclusive: 4.15 µM [inhibitor, partial curve, poor fit].

With `N#CCC(=N)N1CCN(c2ccccc2)CC1` as the compound, how does the Potency read?
Its Potency is inconclusive: 18.5 µM [inhibitor, single point].

Which Potency does the source give for `COc1ccc(C(=O)N2CCN(C3CCC(c4ccccc4)CC3)CC2)cc1OC` (centres undefined) here?
Its Potency is active: 9.28 µM.

For `COc1ccc(CCn2c(NCc3ccco3)nc3c2c(=O)[nH]c(=O)n3C)cc1`, which Potency is on record?
Its Potency is inconclusive: 18.5 µM [inhibitor, single point].

Which Potency does the source give for `O=C(NC1CCCC1)C(c1cccnc1)N(CCc1ccccc1)C(=O)c1ccco1` (centres undefined) here?
The Potency was “inactive”.

With `Nc1cc2c(cc1C(=O)c1ccc(Cl)cc1)OCCO2` as the compound, how does the Potency read?
The Potency was “inactive”.

Which Potency does the source give for `O=C(Nc1ccccc1N1CCCCC1)c1cc(S(=O)(=O)N2CCOCC2)ccc1Cl` here?
Its Potency is inconclusive: 13.1 µM [inhibitor, single point].

Which Potency does the source give for `CCC(C)[C@H](NC(=O)N1CCN(c2cccc(C(F)(F)F)c2)CC1)C(=O)OC` (some centres undefined) here?
Its Potency is active: 5.22 µM.

With `COc1ccccc1-c1ccc2nnc(SCC(=O)N3CCCC3)n2n1` as the compound, how does the Potency read?
Its Potency is inconclusive: 8.28 µM [inhibitor, partial curve].

For `Cc1ccc(N2C(=O)C(CN(C)C)C2c2ccccc2)cc1` (centres undefined), which Potency is on record?
Its Potency is inconclusive: 0.0828 µM [inhibitor, full curve, poor fit].

With `Cc1ccccc1[C@@H](NC(=O)OC(C)(C)C)C(=O)OC(C)(C)C` as the compound, how does the Potency read?
The Potency was inconclusive: 16.5 µM [inhibitor, partial curve, poor fit].

Which Potency does the source give for `CN(C)CCCNC(NC(=O)c1cccs1)C(Cl)(Cl)Cl` (centres undefined) here?
Its Potency is inconclusive: 18.5 µM [inhibitor, single point].

With `CC(C)OCCCN1CN(S(=O)(=O)c2ccc(Cl)cc2)c2nc3ccccc3nc21` as the compound, how does the Potency read?
Its Potency is inconclusive: 9.28 µM [inhibitor, single point].

Which Potency does the source give for `COc1ccc(C(=O)NC2CCN(C(=O)Nc3ccc(F)cc3)CC2)cc1` here?
The Potency was inconclusive: 13.1 µM [inhibitor, single point].

With `COc1cc2c(cc1OC)C(C1C(=O)CC(C)(C)CC1=O)N(C(=O)CCl)CC2` (centres undefined) as the compound, how does the Potency read?
The Potency was “inactive”.

With `COc1ccc(/C=C/C(=O)c2ccccc2)cc1COc1ccccc1F` as the compound, how does the Potency read?
Its Potency is inconclusive: 11.7 µM [inhibitor, single point].
